Four substances from patent US4668769 (dated 1987) can be followed below.

This series is described as follows: general procedure: solution-phase peptide synthesis; dicyclohexylcarbodiimide / 1-hydroxybenzotriazole hydrate.

Under “coupling step”, “BocPhe(N-imBoc)His-2-N-i-propylazahomocyclohexylStaLys(e-CBZ)Phe benzyl ester” returned a step yield of 51%. With “BocPhe-N-methylHis-2-N-i-butylazahomocyclohexylStaLysPheNH2”, the step yield result (purification step, recovery of crude material injected) was “Approximately 30%”. Consider “BocPheHis(imBoc)-2-N-isobutylazahomocyclohexyl-StaLys(e-CBZ)Phe benzyl ester”, for which, for the setting “coupling step”, the step yield worked out at 44%. On the same count and under the same terms, in the case of “BocPheHis(imBoc)-O-benzyl-2-oxahomocyclohexylStaLys(e-CBZ)Phe benzyl ester” it was 69%.
